PubChem BioAssay AID1259424 | University of Nebraska Medical Center, 2018
Aim: 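Find knockdowns that reproduce the expression shifts seen after KSR1 loss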 (primary screen). System: human HCT116 colon cancer cells. Reagents: siRNA pool against human genes, 50 nM. Measurement: 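Six signature mRNAs by branched-DNA multiplex assay, scaled to two housekeeping genes and non-targeting median, log2; matched to mean KSR1 knockdown profile by Pearson correlation and euclidean distance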. Scale: mean correlation with KSR1 profile: higher = expression change more like KSR1 knockdown.
In all, the deposit lists about 14,000 reagents; shown is an unselected part. 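Higher correlation or smaller distance means closer resemblance to KSR1 loss; control wells, including KSR1 knockdowns, recur on many plates.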 Further read-outs or replicates are left out here. No sequences are given here. The record does not give: the time to read-out.

target gene | mean correlation with KSR1 profile
PHF24 | 0.343
GTF3C5 | -0.206
BKGD | 0.0426
TRPC1 | -0.146
RPS4X | -0.92
ARPP19 | 0.706
KCNAB2 | -0.929
ARF3 | -0.254
GCNT3 | -0.523
RANBP9 | -0.43
WDR93 | -0.436
PALLD | -0.105
SLC52A2 | 0.548
GPR137 | 0.519
PRPS2 | 0.348
ZC3HC1 | -0.344

6 neighbouring entries from above, for reference:
target gene | mean correlation with KSR1 profile
PHF24 | 0.343
GTF3C5 | -0.206
BKGD | 0.0426
TRPC1 | -0.146
RPS4X | -0.92
ARPP19 | 0.706

The results go on:
target gene | mean correlation with KSR1 profile
MAN2B2 | 0.136
C22orf23 | 0.535
IRAK4 | -0.302
ERH | -0.166
ZNF319 | -0.189
SND1-IT1 | 0.791
PPP1R15B | 0.227
MMP13 | -0.766
SIGLEC8 | -0.24
KRT85 | -0.275
DHRS2 | 0.261
SPN | -0.0468
ELF1 | 0.635
RCCD1 | 0.512
RHOQ | 0.146
FOXJ3 | -0.223
RAB3GAP2 | -0.172
YAE1 | -0.203
